PubChem BioAssay AID1159578 | Peter MacCallum Cancer Centre | 2015
Here is one part, drawn at random, of about 18,000 reagents. In the full data, about 1,030 (5.7%) were called active. 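Inactive calls also include pools with fewer than 3300 nuclei, whose migration was not assessed.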 The raw values are shown without normalisation.

Purpose: 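siRNA pools altering how lymphatic endothelial cells close a scratch wound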 (primary screen)
Cells: human lymphatic endothelial cells
Knock-down reagent: siRNA pool against human genes, 40 nM
Time to read-out: 48 h after transfection
Measurement: 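High-content imaging of dye-stained cells in a scratch assay measures filled wound area and nuclei per well; duplicate means given as ratio to mock and robust z-score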
Direction: migration robust z-score: higher = faster migration into the scratch; migration relative to mock: higher = more scratch area covered than mock; nuclei per well: higher = more cells in the well
Call rule: 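Pools averaging fewer than 3300 nuclei are never called; remaining pools count as changed when migration robust z lies outside -2 to 2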
Meaning of the calls: active = migration changed; inactive = no migration change, or too few cells

| target | PubChem SID | migration robust z-score | migration class with cell-count check | migration relative to mock | nuclei per well, duplicate mean | call |
| --- | --- | --- | --- | --- | --- | --- |
| CENPW (centromere protein W) | SID255365427 | 0.98 | migration z between -2 and 2; enough cells | 1.14 | 5036 | inactive |
| SLC18B1 | SID255362394 | 1.04 | migration z between -2 and 2; enough cells | 1.15 | 5912 | inactive |
| EPDR1 (ependymin related 1) | SID255358145 | -0.03 | migration z between -2 and 2; enough cells | 0.88 | 5639 | inactive |
| SYVN1 (synoviolin 1) | SID255361368 | -1.9 | migration z between -2 and 2; enough cells | 0.44 | 4162 | inactive |
| SSTR5 (somatostatin receptor 5) | SID255352650 | -0.88 | migration z between -2 and 2; enough cells | 0.64 | 6026 | inactive |
| XRCC3 (X-ray repair cross complementing 3) | SID255353160 | 0.23 | migration z between -2 and 2; enough cells | 0.94 | 7071 | inactive |
| GLTP (glycolipid transfer protein) | SID255357573 | 0.04 | migration z between -2 and 2; enough cells | 0.89 | 4706 | inactive |
| PTPN3 (protein tyrosine phosphatase non-receptor type 3) | SID255351946 | -1.14 | migration z between -2 and 2; enough cells | 0.58 | 6481 | inactive |
| PDGFD (platelet derived growth factor D) | SID255360746 | 0.6 | migration z between -2 and 2; enough cells | 1.04 | 6405 | inactive |
| SLC25A39 | SID255357820 | 0.93 | migration z between -2 and 2; enough cells | 1.12 | 6777 | inactive |
| AREL1 (apoptosis resistant E3 ubiquitin protein ligase 1) | SID255354624 | 0.21 | migration z between -2 and 2; enough cells | 0.84 | 4143 | inactive |
| CRYGD (crystallin gamma D) | SID255349106 | 0.46 | migration z between -2 and 2; enough cells | 1 | 5602 | inactive |
| RPSA (ribosomal protein SA) | SID255350726 | -0.69 | migration z between -2 and 2; enough cells | 0.7 | 4896 | inactive |
| PRUNE1 (prune exopolyphosphatase 1) | SID255359642 | 0.06 | migration z between -2 and 2; enough cells | 0.9 | 7708 | inactive |
| MTIF3 (mitochondrial translational initiation factor 3) | SID255364158 | 0 | migration z between -2 and 2; enough cells | 0.8 | 5978 | inactive |
| ITK (IL2 inducible T cell kinase) | SID255350562 | 0.83 | migration z between -2 and 2; enough cells | 0.97 | 5188 | inactive |
| ZFP69 (ZFP69 zinc finger protein) | SID255365047 | -2.26 | migration z below -2; enough cells | 0.3 | 6124 | active |
| RAB17 (RAB17, member RAS oncogene family) | SID255359888 | 0.42 | migration z between -2 and 2; enough cells | 0.88 | 5017 | inactive |
| RPS6KA3 (ribosomal protein S6 kinase A3) | SID255352214 | -2.21 | migration z below -2; enough cells | 0.38 | 5024 | active |
| SLC9A4 | SID255365534 | 0.67 | migration z between -2 and 2; enough cells | 1.06 | 7167 | inactive |
| AQP3 (aquaporin 3 (Gill blood group)) | SID255348365 | -0.62 | under 3300 nuclei; migration not judged | 0.68 | 3151 | inactive |
| CPXCR1 (CPX chromosome region candidate 1) | SID255357910 | 0.59 | migration z between -2 and 2; enough cells | 1.04 | 5998 | inactive |
| CLPTM1 (CLPTM1 regulator of GABA type A receptor forward trafficking) | SID255348969 | 0.34 | migration z between -2 and 2; enough cells | 0.98 | 6168 | inactive |
| SCGB1D4 (secretoglobin family 1D member 4) | SID255365843 | -0.9 | migration z between -2 and 2; enough cells | 0.65 | 4424 | inactive |
| MAP3K3 (mitogen-activated protein kinase kinase kinase 3) | SID255350931 | -1.29 | migration z between -2 and 2; enough cells | 0.55 | 4101 | inactive |
| TMEM120A (transmembrane protein 120A) | SID255361106 | -0.82 | migration z between -2 and 2; enough cells | 0.68 | 5832 | inactive |
| CD5L (CD5 molecule like) | SID255348757 | 0 | migration z between -2 and 2; enough cells | 0.8 | 5514 | inactive |
| KRTAP10-7 (keratin associated protein 10-7) | SID255365413 | 0.04 | migration z between -2 and 2; enough cells | 0.9 | 7270 | inactive |
| PDE4A (phosphodiesterase 4A) | SID255351467 | 0.6 | migration z between -2 and 2; enough cells | 0.92 | 5072 | inactive |
| SCAMP4 | SID255362178 | -0.64 | migration z between -2 and 2; enough cells | 0.72 | 5430 | inactive |
| TRIAP1 (TP53 regulated inhibitor of apoptosis 1) | SID255357749 | 1.97 | migration z between -2 and 2; enough cells | 1.39 | 5428 | inactive |
| ETS1 (ETS proto-oncogene 1, transcription factor) | SID255349568 | -0.05 | migration z between -2 and 2; enough cells | 0.8 | 5462 | inactive |
| CALB2 (calbindin 2) | SID255348664 | -0.23 | migration z between -2 and 2; enough cells | 0.83 | 5476 | inactive |
| CST4 (cystatin S) | SID255349143 | 0.29 | migration z between -2 and 2; enough cells | 0.96 | 5616 | inactive |
| GRM8 (glutamate metabotropic receptor 8) | SID255350056 | 0.42 | migration z between -2 and 2; enough cells | 0.88 | 6843 | inactive |
| GAGE5 (G antigen 5) | SID255349809 | -0.44 | migration z between -2 and 2; enough cells | 0.77 | 4634 | inactive |
| ENTREP1 (endosomal transmembrane epsin interactor 1) | SID255354258 | -0.68 | migration z between -2 and 2; enough cells | 0.71 | 4632 | inactive |
| ARFIP1 (ARF interacting protein 1) | SID255356982 | -2.23 | migration z below -2; enough cells | 0.38 | 4043 | active |
| TLX3 (T cell leukemia homeobox 3) | SID255357281 | -1.39 | migration z between -2 and 2; enough cells | 0.52 | 5140 | inactive |
| FRMD7 (FERM domain containing 7) | SID255361790 | 1.08 | migration z between -2 and 2; enough cells | 1.17 | 4590 | inactive |
| HAUS1 (HAUS augmin like complex subunit 1) | SID255362291 | -1.21 | migration z between -2 and 2; enough cells | 0.57 | 5862 | inactive |
| CHRNB2 (cholinergic receptor nicotinic beta 2 subunit) | SID255348925 | -0.9 | migration z between -2 and 2; enough cells | 0.63 | 5618 | inactive |
| LASP1 (LIM and SH3 protein 1) | SID255350728 | -0.46 | migration z between -2 and 2; enough cells | 0.76 | 5806 | inactive |
| RB1 (RB transcriptional corepressor 1) | SID255352057 | 0.44 | migration z between -2 and 2; enough cells | 0.89 | 6066 | inactive |
| TAB3 (TGF-beta activated kinase 1 (MAP3K7) binding protein 3) | SID255364564 | -0.08 | migration z between -2 and 2; enough cells | 0.86 | 6921 | inactive |
| LMTK1 (lemur tail kinase 1) | SID255354420 | -2.34 | migration z below -2; enough cells | 0.36 | 3372 | active |
| PHC1 (polyhomeotic homolog 1) | SID255349432 | 0.32 | migration z between -2 and 2; enough cells | 0.97 | 5857 | inactive |
| CAVIN1 (caveolae associated protein 1) | SID255364743 | -0.67 | migration z between -2 and 2; enough cells | 0.71 | 5958 | inactive |
| BCAS2 (BCAS2 pre-mRNA processing factor) | SID255354967 | 1.35 | migration z between -2 and 2; enough cells | 1.06 | 7460 | inactive |
| FITM1 (fat storage inducing transmembrane protein 1) | SID255363721 | 0.56 | migration z between -2 and 2; enough cells | 1.03 | 3578 | inactive |
| TRIM62 (tripartite motif containing 62) | SID255358515 | 0.65 | migration z between -2 and 2; enough cells | 0.93 | 5693 | inactive |
| GARIN4 (golgi associated RAB2 interactor family member 4) | SID255363426 | -1.39 | migration z between -2 and 2; enough cells | 0.52 | 3968 | inactive |
| SPA17 (sperm autoantigenic protein 17) | SID255357912 | 0.2 | migration z between -2 and 2; enough cells | 0.94 | 5634 | inactive |
| IL31RA (interleukin 31 receptor A) | SID255362945 | 0.11 | migration z between -2 and 2; enough cells | 0.82 | 5710 | inactive |
| PCDHGA2 (protocadherin gamma subfamily A, 2) | SID255359005 | 0.8 | migration z between -2 and 2; enough cells | 1.1 | 6550 | inactive |
| TDRD5 (tudor domain containing 5) | SID255363790 | 0.82 | migration z between -2 and 2; enough cells | 1.1 | 4920 | inactive |
| PCDHB12 (protocadherin beta 12) | SID255359010 | -1.16 | migration z between -2 and 2; enough cells | 0.58 | 4712 | inactive |
